Laboratory results published in patent publication US6663846B1, “Devices and methods for monitoring drug therapy compliance” (priority 1998, dated 2003).
Some of these results come from one statement about several compounds together.

Assay: Emission spectra, front-face illumination, excitation at 600 nm
Format: physicochemical
Conditions: water and 0.5% intralipid
Procedure: All fluorescence measurements were performed using front-face illumination and detection, using the sample holder shown in FIG. 18. The incident light was redirected from the usual position using two mirrors. The position of the sample could be adjusted with a movable stage. The re-emergent light passed through one or more optical filters prior to reaching the destination.
The sample consisted of either a cuvette containing the intralipid, or a quartz slide covering the chicken muscle and skin (FIG. 19). Excitation at 600 nm was provided by the fundamental output of a rhodamine 6G dye laser. This dye laser was synchronously pumped by a mode-locked argon ion laser, and cavity dumped at 1.88 MHz.
For the present studies we used two fluorophores with ns decay times, Rh800 and IcG, and a long lifetime metal ligand complex. We refer to this long lifetime reference as the Ru complex (FIG. 1). All three fluorophores can be excited at 600 nm. In water Rh800 emits maximally near 706 nm, and IcG near 805 nm. […] The emission spectra of Rh800 and IcG in 0.5% intralipid is similar to those observed in water (FIG. 2).

| Molecule | probe concentration above which emission intensity decreased (self-quenching) [µM] |
| --- | --- |
| Rhodamine 800 [Rh800] | 10 to 20 |
| CC1(C)C(/C=C/C=C/C=C/C=C2\N(CCCCS(=O)(=O)O)c3ccc4ccccc4c3C2(C)C)=[N+](CCCCS(=O)(=O)[O-])c2ccc3ccccc3c21 [IcG, indocyanine green] | 10 to 20 |
